According to article PMC3963837:
Results are given in words; binding and its absence hold for the method and conditions named. Binding seen in cells or lysates may run through a third protein. Some binding calls cover weakened binding; strength is not graded here.

Sequences of proteins named here, by UniProt entry; tags and fusion partners are left off. A change or cut given only in a name is not applied to a line headed by its entry.
UniProt P61809: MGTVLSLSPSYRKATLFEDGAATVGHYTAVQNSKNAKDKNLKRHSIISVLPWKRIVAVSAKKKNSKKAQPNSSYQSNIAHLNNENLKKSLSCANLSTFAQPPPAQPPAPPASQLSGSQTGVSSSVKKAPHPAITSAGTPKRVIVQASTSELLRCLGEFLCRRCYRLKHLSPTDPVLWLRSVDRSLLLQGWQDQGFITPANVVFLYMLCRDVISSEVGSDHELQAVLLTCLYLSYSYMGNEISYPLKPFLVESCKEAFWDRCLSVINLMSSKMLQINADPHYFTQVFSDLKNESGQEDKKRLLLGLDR
UniProt P40645: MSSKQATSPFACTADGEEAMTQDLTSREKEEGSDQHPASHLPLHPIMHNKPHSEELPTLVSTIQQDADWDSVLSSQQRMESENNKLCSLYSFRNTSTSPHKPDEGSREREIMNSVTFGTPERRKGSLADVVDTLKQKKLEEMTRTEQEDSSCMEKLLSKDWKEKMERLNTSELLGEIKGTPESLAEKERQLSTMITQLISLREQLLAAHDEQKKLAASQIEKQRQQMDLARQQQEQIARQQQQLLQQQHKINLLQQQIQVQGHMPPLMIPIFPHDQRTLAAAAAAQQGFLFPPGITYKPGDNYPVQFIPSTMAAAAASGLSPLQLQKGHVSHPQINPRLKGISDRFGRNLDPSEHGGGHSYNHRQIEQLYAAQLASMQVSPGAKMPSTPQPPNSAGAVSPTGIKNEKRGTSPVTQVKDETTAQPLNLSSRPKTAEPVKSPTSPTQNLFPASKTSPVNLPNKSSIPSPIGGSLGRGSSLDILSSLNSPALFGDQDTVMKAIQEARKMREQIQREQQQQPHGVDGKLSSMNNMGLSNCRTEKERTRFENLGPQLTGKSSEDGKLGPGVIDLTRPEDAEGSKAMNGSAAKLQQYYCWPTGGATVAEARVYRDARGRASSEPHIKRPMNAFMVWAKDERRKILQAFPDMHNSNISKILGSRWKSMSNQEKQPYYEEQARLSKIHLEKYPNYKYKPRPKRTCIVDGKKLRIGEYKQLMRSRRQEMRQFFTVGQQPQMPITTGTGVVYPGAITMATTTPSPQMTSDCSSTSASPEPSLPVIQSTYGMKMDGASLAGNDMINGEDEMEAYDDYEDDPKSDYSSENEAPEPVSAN

Legend:
[1] = biological target: Cdk5/p35 complex (mouse (endogenous in PN0 brain, by the text; the legend says PN1 rat brain)) (UniProt P49615+P61809); experiment: co-IP; endogenous proteins from postnatal brain lysate; IP with Sox6 antisera, Cdk5 antisera or control rabbit serum, protein A-agarose, washed with lysis buffer (50 mM Tris-HCl pH 7.5, 150 mM NaCl, 10 mM EDTA, 2 mM EGTA, 1% NP-40), Western blot
[2] = biological target: Sox6 (mouse (endogenous in PN0 brain, by the text; the legend says PN1 rat brain)) (UniProt P40645); experiment: as above

binding [1] | binding [2] | Substance
binds |  | Sox6 (from UniProt P40645 1-827)
 | binds | Cdk5/p35 complex (from UniProt P49615 1-292; P61809 1-307)
